PubChem BioAssay AID504784, Drosophila RNAi Screening Center | 2011

Screen: 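Search for regulators of lipid droplet storage in oleate-fed fly cells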 (primary screen)
Cells: Drosophila Kc167 embryonic cells
Reagent: long dsRNA against Drosophila genes, about 250 ng dsRNA per well
Duration: 4 days
Challenge: cells fed 400 µM oleic acid bound to BSA
Measured: 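Cells imaged and segmented; ratio of lipid droplet area to nuclear area, log-transformed, then normalised as a B-score over the screen; higher means more stored lipid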
Direction: droplet/nuclear area B-score: higher = more stored lipid (overstorage)
The deposit covers about 17,000 reagents; below is an unselected part of those that have a named target and a result. 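Each column is one replicate's B-score; the combined score over replicates was not deposited, so single values may mislead.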 Reagents against one gene are numbered here. Not all columns of the deposit are shown.

For RhoGEF3 (retired record) #1, the values are droplet/nuclear area B-score, replicate 1 = -0.369. Depletion of RhoGEF3 (retired record) #2 gave: droplet/nuclear area B-score, replicate 1 = 0.837. After knock-down of FucTB (alpha1,3-fucosyltransferase B) the results were droplet/nuclear area B-score, replicate 1 = -0.48. Depletion of CG31183 #1 resulted in: droplet/nuclear area B-score, replicate 1 = -1.41. Silencing of CG31183 #2 came out at: droplet/nuclear area B-score, replicate 1 = -0.517.

A portion of the results above, as a working copy:
CG31183 #1 — droplet/nuclear area B-score, replicate 1 = -1.41
CG31183 #2 — droplet/nuclear area B-score, replicate 1 = -0.517

The list goes on.
Silencing of mesh #1 resulted in: droplet/nuclear area B-score, replicate 1 = 2.03. After knock-down of mesh #2, the record shows droplet/nuclear area B-score, replicate 1 = -0.187. mesh #3 showed droplet/nuclear area B-score, replicate 1 = -0.0355. Knock-down of CG12377 (retired record) #1 came out at: droplet/nuclear area B-score, replicate 1 = -0.672. Knock-down of CG12377 (retired record) #2 came out at: droplet/nuclear area B-score, replicate 1 = -0.93. After knock-down of CG13151 the results were droplet/nuclear area B-score, replicate 1 = 0.0977.

Inx3 (Innexin 3) showed droplet/nuclear area B-score, replicate 1 = -1.66. For CG31805, the values are droplet/nuclear area B-score, replicate 1 = 0.0613. With knock-down of CG15721, the record shows droplet/nuclear area B-score, replicate 1 = 0.295. After knock-down of SPE (Spatzle-Processing Enzyme), the record shows droplet/nuclear area B-score, replicate 1 = -1.42. For CG15059 the deposit lists droplet/nuclear area B-score, replicate 1 = 1.24.
